Data as given in PubChem BioAssay AID1259291 (Sanger Institute, 2017).

Aim: 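Genes needed for HT29 colorectal cancer cell survival or for sensitivity to drugs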 (primary screen)
Cells: HT29 human colorectal cancer cells
Reagent: siRNA pool against human genes
Treatment: anchor drugs added a day after transfection: BYL719 at 1 µM, cetuximab at 5 µg/ml or trametinib at 10 nM, or DMSO vehicle alone
Read-out: 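Replicate-averaged viability relative to non-targeting pool, robust z-score based on control wells, plus per-drug synergy score for 1 µM BYL719, 5 µg/ml cetuximab and 10 nM trametinib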
Direction: robust z-score, knock-down alone: higher = more viable cells
Active means: 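a knock-down alone scoring under -3 on robust z-score is called essential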
Calls: active = essential (knock-down alone); inactive = no change alone
The deposit covers 794 reagents; this is an unselected part. 15 of them (1.9%) were called active. 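Calls rest on knock-down alone; drug synergy scores do not affect them; drugs added a day post-transfection, DMSO vehicle as comparison.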 Not all columns of the deposit are shown. Reagent sequences are not shown. The record does not give: the amount of reagent, the time to read-out.

SRGAP3 (SLIT-ROBO Rho GTPase activating protein 3): robust z-score, knock-down alone = 0.552; Call = inactive
PFKFB4 (6-phosphofructo-2-kinase/fructose-2,6-biphosphatase 4): robust z-score, knock-down alone = 0.552; Call = inactive
MAP3K7 (mitogen-activated protein kinase kinase kinase 7): robust z-score, knock-down alone = -0.679; Call = inactive
IGF1R (insulin like growth factor 1 receptor): robust z-score, knock-down alone = 0.552; Call = inactive
MAPKAPK5 (MAPK activated protein kinase 5): robust z-score, knock-down alone = 0.0593; Call = inactive
SLK (STE20 like kinase): robust z-score, knock-down alone = 0.552; Call = inactive
DYRK3 (dual specificity tyrosine phosphorylation regulated kinase 3): robust z-score, knock-down alone = 0.552; Call = inactive
ELF3 (E74 like ETS transcription factor 3): robust z-score, knock-down alone = -1.7; Call = inactive
LATS1 (large tumor suppressor kinase 1): robust z-score, knock-down alone = 0.552; Call = inactive
FGFRL1 (fibroblast growth factor receptor like 1): robust z-score, knock-down alone = 0.552; Call = inactive
SOS2 (SOS Ras/Rho guanine nucleotide exchange factor 2): robust z-score, knock-down alone = 0.552; Call = inactive
MAP4K3 (mitogen-activated protein kinase kinase kinase kinase 3): robust z-score, knock-down alone = 0.552; Call = inactive

Part of the list above in another layout.
Target gene	robust z-score, knock-down alone	Call
IGF1R (insulin like growth factor 1 receptor)	0.552	inactive
MAPKAPK5 (MAPK activated protein kinase 5)	0.0593	inactive
